# The campaign covered roughly 390,000 compounds. About 910 (0.23%) were called active. This list was built around the results that the source calls inconclusive (neither active nor inactive); the mix of calls is not that of the screen. The call rests on the fitted dose curve; in most records, active means well fitted inhibition curve with a large enough effect; inconclusive means small, poorly fitted or top-dose-only effect; inactive means no such curve, though single readings can be large or run the other way. Potencies beside an inconclusive call are fits to weak or partial responses and may not hold up.
# Protein sequences, listed by entry. Tags and fused reporters are not part of them. Lines headed by an entry give the natural chain unless they say otherwise; changes in a name come on top.
# UniProt O94782: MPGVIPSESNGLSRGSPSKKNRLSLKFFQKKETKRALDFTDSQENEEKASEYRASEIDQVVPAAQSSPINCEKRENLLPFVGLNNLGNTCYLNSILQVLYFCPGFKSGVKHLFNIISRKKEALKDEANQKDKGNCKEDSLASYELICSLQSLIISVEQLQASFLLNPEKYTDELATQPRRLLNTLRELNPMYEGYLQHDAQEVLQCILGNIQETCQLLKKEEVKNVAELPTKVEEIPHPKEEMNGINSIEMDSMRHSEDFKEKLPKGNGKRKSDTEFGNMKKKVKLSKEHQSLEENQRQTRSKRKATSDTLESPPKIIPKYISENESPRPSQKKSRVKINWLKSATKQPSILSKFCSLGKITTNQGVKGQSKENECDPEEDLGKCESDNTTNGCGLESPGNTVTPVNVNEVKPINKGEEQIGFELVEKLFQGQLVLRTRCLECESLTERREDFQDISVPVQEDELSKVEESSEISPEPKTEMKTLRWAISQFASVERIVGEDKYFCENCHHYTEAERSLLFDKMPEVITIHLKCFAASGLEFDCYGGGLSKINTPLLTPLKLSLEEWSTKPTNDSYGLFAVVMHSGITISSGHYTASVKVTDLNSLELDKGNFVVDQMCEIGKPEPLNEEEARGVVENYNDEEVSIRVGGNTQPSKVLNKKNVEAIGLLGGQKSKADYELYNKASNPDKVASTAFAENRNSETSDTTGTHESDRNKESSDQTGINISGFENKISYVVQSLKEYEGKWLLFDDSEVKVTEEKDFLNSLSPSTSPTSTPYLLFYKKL
# Molecular target: Ubiquitin carboxyl-terminal hydrolase 1 (Homo sapiens) (UniProt O94782)
# Assay: Inhibitors of USP1/UAF1: Primary Screen; further: nearly all actives have a fitted effect of over 60% in size
# Settings: recombinant USP1/UAF1, Ub-Rhodamine cleavage fluorescence; activity change, negative = inhibition: at 57.1 µM (top of the series)
# Procedure, shortened: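 1 nM enzyme complex + cpd, 15 min RT; start with Ub-Rho 150nM final; kinetic fluorescence ex 480/em 540, 6 reads q60 s. Buffer 50mM HEPES pH 7.8, 0.5mM EDTA, 0.1 mg/ml BSA, 1mM TCEP, 0.01% Tween-20.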
# On the % scale 0 is the no-effect control and ±100 the full control effect; potency means the concentration at half of the fitted maximal effect.
SMILES,Potency,"activity change, negative = inhibition"
COCCCNC(=O)C[C@H]1C[C@H](C(=O)N2CCOCC2)[C@@]2(CCC3CCCC3)c3[nH]c4cc(-c5ccco5)ccc4c3CCN2C1=O,"inconclusive: 44.7 µM [inhibitor, partial curve, poor fit]",–
COc1ccc(C2C(C(=O)/C=C/c3ccco3)=C(O)C(=O)N2CCN2CCOCC2)cc1OC (stereo unspecified),"inconclusive: 50.1 µM [inhibitor, partial curve]",–
O=C1C2CCCN2C(c2ccccc2F)N1c1cccc(Cl)c1 (stereo unspecified),"inconclusive: 0.224 µM [inhibitor, full curve, poor fit]",–
COc1ccccc1C(=O)NCC(=O)OCC(=O)Nc1cccc(S(=O)(=O)N2CCCCCC2)c1,"inconclusive: 0.282 µM [inhibitor, full curve, poor fit]",–
CC(C)CCN(Cc1ccco1)C(=O)c1cc2c(Cl)nc3ccccc3c2s1,"inconclusive: 44.7 µM [inhibitor, partial curve, poor fit]",–
OCc1c(OCc2cccc(F)c2)ccc2ccccc12,–,inactive: -23.6%
COc1ccc(OC)c(CNC(=O)CCn2c(=O)c3cccn3c3ccc(F)cc32)c1,"inconclusive: 1 µM [inhibitor, full curve, poor fit]",–
O=C(O)c1ccc2c(=O)n3c(nc2c1)/C(=C/c1ccc(Cl)cc1Cl)CC3,"inconclusive: 31.6 µM [inhibitor, single point]",–
O=C(/C=C/c1ccc(F)cc1)Nc1nc2n(n1)C(c1ccc(Cl)cc1)C=C(c1ccccc1)N2 (stereo unspecified),–,inactive: -17.2%
COC(=O)C1C2C=CC3(CN(CC4CCCO4)C(=O)C13)O2 (stereo unspecified),–,inactive: -12.8%
C=CCn1c(CCCNC(=O)C(C)(C)C)nc2ccccc21,"inconclusive: 5.62 µM [inhibitor, partial curve, poor fit]",–
CC1=CC(C)(C)Nc2ccc(OC(=O)c3ccco3)cc21,"inconclusive: 35.5 µM [inhibitor, partial curve, poor fit]",–
Cc1cc(C)c(S(=O)(=O)/N=C2/C=C(Sc3ncn[nH]3)C(=O)c3ccccc32)cc1C,active: 1.26 µM,–
Cc1ccc(C(=O)ON=C2CCN(S(=O)(=O)c3ccccc3)CC2)cc1,–,inactive: -8.36%
CC(=O)c1cccc(-c2ccc3c(=O)[nH]c(Nc4ccccc4)cc3c2)c1,active: 3.16 µM,–
COc1ccc(-c2nc(-c3ccccc3)c(-c3ccc(O)cc3)[nH]2)cc1,–,inactive: -10.1%
Cc1[nH][nH]c(=O)c1C(c1ccc(Cl)cc1)c1c(C)[nH][nH]c1=O,–,inactive: 1.53%
Cc1ccc2c(=O)c(C(=O)c3cccc(Cl)c3)cn(CC(=O)NCc3ccc(F)cc3)c2n1,"inconclusive: 79.4 µM [inhibitor, partial curve, poor fit]",–
CC(=O)Nc1cc(-c2nn(CC(=O)N3CCCCC3)c(=O)c3ccccc23)ccc1N1CCOCC1,"inconclusive: 0.562 µM [inhibitor, full curve, poor fit]",–
CC1(C)CC(NS(=O)(=O)c2ccc(Cl)cc2)CC(C)(C)N1,–,inactive: 1.49%
COc1ccc(C(=O)COC(=O)C(C)N2C(=O)C3C4CCC(C4)C3C2=O)cc1 (stereo unspecified),"inconclusive: 31.6 µM [inhibitor, single point]",–
COc1ccc(-n2ncc3c(NCCC4=CCCCC4)ncnc32)cc1,"inconclusive: 50.1 µM [inhibitor, partial curve, poor fit]",–

# In a second layout: entries from further up
SMILES	Potency	activity change, negative = inhibition
Cc1[nH][nH]c(=O)c1C(c1ccc(Cl)cc1)c1c(C)[nH][nH]c1=O	–	inactive: 1.53%
Cc1ccc2c(=O)c(C(=O)c3cccc(Cl)c3)cn(CC(=O)NCc3ccc(F)cc3)c2n1	inconclusive: 79.4 µM [inhibitor, partial curve, poor fit]	–
CC(=O)Nc1cc(-c2nn(CC(=O)N3CCCCC3)c(=O)c3ccccc23)ccc1N1CCOCC1	inconclusive: 0.562 µM [inhibitor, full curve, poor fit]	–
CC1(C)CC(NS(=O)(=O)c2ccc(Cl)cc2)CC(C)(C)N1	–	inactive: 1.49%
COc1ccc(C(=O)COC(=O)C(C)N2C(=O)C3C4CCC(C4)C3C2=O)cc1 (stereo unspecified)	inconclusive: 31.6 µM [inhibitor, single point]	–

# The list goes on:

SMILES,Potency,"activity change, negative = inhibition"
c1ccc2c(c1)-c1nc3ccccc3cc1C2N1CCCCC1 (stereo unspecified),"inconclusive: 39.8 µM [inhibitor, partial curve]",–
Cc1cc(C(=O)CCC(=O)Nc2ccc(C(N)=O)cc2)c(C)s1,"inconclusive: 0.282 µM [inhibitor, full curve, poor fit]",–
CC(C)n1c(=S)[nH]c2scc(-c3cccs3)c2c1=O,–,inactive: -15.7%
COc1cc(Nc2nc3ccccc3c3nnc(C)n23)cc(OC)c1,"inconclusive: 1.58 µM [inhibitor, full curve, poor fit]",–
COc1cc(/C=N/NC(=O)c2csc3c2CCCC3)ccc1OCCN1CCOCC1,"inconclusive: 112 µM [inhibitor, partial curve, poor fit]",–
Nc1cccc2nsnc12,"inconclusive: 35.5 µM [inhibitor, single point]",–
Cc1cc(O)c(CN(C)C)c2c1C(=O)/C(=C/c1ccco1)O2,–,inconclusive: -31.4% [inhibitor]
CCc1ccc(NC(=O)Cn2c3ncccc3c(=O)n2-c2ccc(C)c(C)c2)cc1,"inconclusive: 6.31 µM [inhibitor, single point]",–
Cc1ccc(NC(=O)/C(C#N)=C/c2cc(C)n(-c3ccc(F)cc3)c2C)cc1C,"inconclusive: 5.62 µM [inhibitor, partial curve, poor fit]",–
CCCCCCc1cc2cc(S(=O)(=O)c3ccc(Cl)cc3)c(=O)oc2cc1O,"inconclusive: 1 µM [inhibitor, full curve, poor fit]",–
CCC(=NCCc1ccc(OC)c(OC)c1)C1=C(O)CC(C)(C)CC1=O,"inconclusive: 6.31 µM [inhibitor, single point]",–
O=C(N/N=C\c1ccc(CN(Cc2ccc(Cl)cc2)S(=O)(=O)c2ccccc2)o1)C(=O)Nc1ccc(F)cc1,–,inactive: -19.2%
CCOC(=O)c1c(C)n(CCNC(C)=O)c2ccc(O)cc12,"inconclusive: 0.398 µM [inhibitor, full curve, poor fit]",–
CC(Nc1nc(-c2cccc(Br)c2)cs1)c1nc2cc(Cl)c(N3CCCCC3)cc2n1CCOCCO (stereo unspecified),"inconclusive: 0.126 µM [inhibitor, full curve]",–
Cn1cc(CN2CCN(c3ncccn3)CC2)c(-c2cccc(Cl)c2)n1,"inconclusive: 44.7 µM [inhibitor, partial curve, poor fit]",–
Cc1ccc2oc3c(c(=O)c2c1)C(c1ccc(F)cc1)N(c1nc(C)c(C)s1)C3=O (stereo unspecified),–,inactive: -25.1%
Cc1ccccc1C1C=C(c2ccc(Cl)cc2)Nc2nnnn21 (stereo unspecified),"inconclusive: 1.78 µM [inhibitor, partial curve, poor fit]",–
Cc1[nH]c(=O)[nH]c(=O)c1S(=O)(=O)Nc1ccc(F)cc1Cl,"inconclusive: 10 µM [inhibitor, full curve]",–
CN(C)N=C1c2cc(S(=O)(=O)N(C)C)ccc2-c2ccc(S(=O)(=O)N(C)C)cc21,"inconclusive: 6.31 µM [inhibitor, full curve]",–
Nc1ccc2c(c1)Cc1cc([N+](=O)[O-])ccc1-2,–,inactive: -8.56%
Cc1ccc(S(=O)(=O)Nc2ccc3c(c2)C(=O)N([C@H](C)CO)C[C@H](C)[C@@H](CN(C)C(=O)NC2CCCCC2)OCCCC[C@@H](C)O3)cc1,"inconclusive: 44.7 µM [inhibitor, partial curve, poor fit]",–
COc1ccc(OCC(=O)N(C)Cc2ccccc2)cc1,–,inactive: -23.4%

SMILES,Potency,"activity change, negative = inhibition"
Cc1ccc(S(=O)(=O)N2CCC(=O)N(CCOCc3ccccc3)CC2)cc1,"inconclusive: 7.94 µM [inhibitor, partial curve, poor fit]",–
C[C@H](CO)N1C[C@H](C)[C@@H](CN(C)C(=O)Nc2ccccc2)Oc2ccc(NC(=O)Nc3ccc4c(c3)OCO4)cc2C1=O,"inconclusive: 50.1 µM [inhibitor, partial curve]",–
CN1CCN(C2=Nc3c(Cl)cc(Cl)c4cccc2c34)CC1,–,inactive: -19.7%
Cc1ccc(OC(C)C(=O)OCC(=O)Nc2sccc2C(N)=O)cc1 (stereo unspecified),–,inactive: -17.8%
CC(C)Cc1nnc(NC(=O)CCC(=O)N2CCN(c3ccc(F)cc3)CC2)s1,"inconclusive: 14.1 µM [inhibitor, partial curve, poor fit]",–
COc1ccc(OC)c(C2=NS(=O)(=O)N(C)C(C(=O)Nc3cccc(C(C)=O)c3)=C2)c1,"inconclusive: 89.1 µM [inhibitor, partial curve, poor fit]",–
COc1ccc(CNC(=O)c2ccc3c(c2)nc2n3CCCCC2)c(OC)c1,"inconclusive: 0.282 µM [inhibitor, full curve]",–
NS(=O)(=O)c1ccc(-c2cccc(/C=C3\SC(=O)NC3=O)c2)cc1,"inconclusive: 14.1 µM [inhibitor, partial curve, poor fit]",–
CCN(CC)Cc1c(O)ccc2occ(C(=O)c3ccc(OC)cc3)c12,–,inactive: -1.97%
CC1=NN(c2ccccc2)C(=O)C1C(=O)c1ccccc1 (stereo unspecified),–,inactive: -3.24%
CCc1nnc(N/N=C/c2cc(Br)c(O)cc2O)n1N,"inconclusive: 35.5 µM [inhibitor, partial curve]",–
Cc1ccccc1OCCn1c(=S)[nH]c2ccccc21,–,inactive: -19.2%
O=C(O)[C@@H](O)[C@H](O)C(=O)O,–,inactive: 14.2%
CCOc1ccc(C(=O)N2CCCCC2CCN2CCOCC2)cc1 (stereo unspecified),"inconclusive: 1.41 µM [inhibitor, full curve]",–
Cc1cccc(C)c1-n1cccc1/C=C1\SC(=S)N(c2cccc(C(=O)O)c2)C1=O,"inconclusive: 35.5 µM [inhibitor, partial curve, poor fit]",–
COc1ccc(C(=O)/C(=C/O)N=Nc2ccc(F)cc2)cc1,–,inactive: -20.1%
Cc1cc(C)n(-c2nc3ccccc3nc2Nc2cc(C(=O)O)ccc2C)n1,–,inactive: -6.91%
CNC(=S)N1N=C(c2ccc(C)cc2)CC1c1ccc(N(C)C)cc1 (stereo unspecified),–,inactive: -21.9%
N#Cc1ccc(C23CC4(C2)[C@H](CN(CC2CCCCC2)[C@@H]4c2ccccc2)C3c2ccc(Cl)nc2)cc1 (stereo partly specified),"inconclusive: 50.1 µM [inhibitor, partial curve, poor fit]",–
CCCCN1C(=O)C2(NNc3ccccc3O2)c2ccccc21 (stereo unspecified),"inconclusive: 15.8 µM [inhibitor, partial curve]",–
O=c1c2ccccc2n(Cc2cccc(F)c2)c(=O)n1Cc1ccccc1Cl,–,inactive: -21.6%
O=C1C(Cl)=C(NCCCN2CCOCC2)C(=O)c2ccccc21,"inconclusive: 28.2 µM [inhibitor, partial curve]",–

# From PubChem BioAssay AID743255 (National Center for Advancing Translational Sciences (NCATS), 2014)
